# Patent publication US12370352B2, “Nasal and ophthalmic delivery of aqueous corticosteroid solutions” (CyDex Pharmaceuticals, Inc., priority 2007, dated 2025)
# At least one structure is not confirmed: it was looked up by name or label, or the drawing left a doubt.
# Assays:
# [1] = Equilibrium binding constants (K) of corticosteroids with CAPTISOL (Example 46); details: CAPTISOL (0.04 M); in M-1 (unit assumed)
# Source text: (§1) The binding of a corticosteroid to the SAE-CD can be characterized by its equilibrium binding constant. The higher the binding constant, the more tightly the corticosteroid is bound to the SAE-CD.
# [2] = Equilibrium binding constants (K) of corticosteroids with SBE6.1-γ-CD (Example 46); details: (SBE)6.1 γ (0.04 M); in M-1 (unit assumed)
# Source text: as §1
# [3] = assay type: binding; details: pH 4.5
# Protocol: A composition of the invention can comprise SAE-CD, corticosteroid, aqueous liquid carrier, and an antihistamine. In some embodiments, the composition contains SAE-CD, budesonide, water (or aqueous buffer) and azelastine. Example 14 details the preparation of such a composition. Other solutions of azelastine in buffer with varying amounts of SAE-CD, in the absence of budesonide, were prepared and scanned by UV Spectrometer. The change in absorption as a function of SAE-CD concentration was plotted and used to determine the equilibrium binding constant of azelastine with SAE-CD, according to the Benesi-Hildebrand equation. […] The binding constant for budesonide under similar conditions was determined to be about 1000; therefore, azelastine will compete with budesonide, or another corticosteroid, for binding to SAE-CD. Accordingly, the amount of SAE-CD present can be increased to permit complete dissolution of both drugs.
# The equilibrium binding constant of the corticosteroid can change when a second active agent is present in a composition of the invention. Since azelastine hydrochloride (AZ-HCl) has an approximately 10-fold higher binding constant for SBE-β-CD than does budesonide (BUD), the amount of SBE-β-CD present in an aqueous composition of the three needs to be sufficient to solubilize both drugs. […]
# [4] = Stability of budesonide R- and S-isomers with and without SBE7-β-CD (Example 13); assay type: physicochemical
# Protocol: SAE-CD is also capable of stabilizing the isomers of budesonide to different extents. […] At a given temperature the ratio of rate constants with/without SBE7-β-CD was less at pH 6 than at pH 4. Although SBE7-β-CD stabilized both isomers, the S-isomer appears to be stabilized to an even greater extent than the R. At all temperatures and pHs tested, the ratio of rate constants with/without SBE7-β-CD was lower for the S isomer. The degree of stabilization affected by SBE7-β-CD at 60° C. is greater than at 80° C. An even greater degree of stabilization would be expected at 40° C. and/or room temperature (20-30° C.). […] The loss of budesonide was first order and […]. […] To achieve a concentration of budesonide in the buffers without SBE7-β-CD sufficient for accurate measurement, the budesonide was dissolved first in 100% ethyl alcohol. […] All solution preps and procedures involving budesonide were done in a darkened room under red light. […] The final budesonide concentration was about 50 μg/mL. […] Each solution was aliquoted into individual amber vials. They were then placed in ovens at 60° C. and 80° C. Sample vials were removed from the ovens and analyzed by HPLC at 0, 96, 164, and 288 hours. The HPLC assay conditions are summarized below. […]
# [5] = Aqueous budesonide/olopatadine/CAPTISOL solution (Example 47); assay type: physicochemical
# Protocol: An aqueous budesonide/olopatadine solution was prepared. […] Three mM citrate buffer was prepared at pH 4.5. […] Those citrate solutions were mixed to adjust the pH to 4.5. […] The solutions were transferred into 250 mL amber beakers with a magnetic stir disk. The solutions were mixed with a magnetic stir disk at 900 rpm at a temperature of 35° C. Approximately 34 milligrams of budesonide was suspended in each CAPTISOL solution. The samples were mixed with a magnetic stir disk at 900 rpm and 35° C. After 24 hours, the samples were filtered through 0.22 μm PVDF filter. The budesonide in the aliquots was assayed by an HPLC assay method and the concentrations were 340 μg/mL. […] Approximately 27 milligrams of olopatadine HCl was weighed into each of three 2 drams amber vials. The olopatadine HCl was suspended to 4 mL of budesonide/CAPTISOL solutions prepared in Part A. The samples were mixed on a roller mixer at RT. After 24 hours, the samples were filtered through 0.22 μm PVDF filter. The olopatadine and budesonide in the aliquots was assayed by HPLC assay methods, respectively. All olopatadine HCl concentrations were >6.6 mg/mL and all budesonide concentrations were >320 μg/mL. […] Approximately 27 milligrams of olopatadine HCl were weighed into each of three 2 drams amber vials. The olopatadine HCl was suspended to 4 mL of budesonide/CAPTISOL solutions prepared in Part A. The samples were mixed on a roller mixer at RT. After 1 hour, the pH of each sample was adjusted to 4.5 with 1N NaOH. Again, the samples were mixed on a roller mixer at RT. […] All samples were filtered through 0.22 μm PVDF filter. The olopatadine and budesonide in the aliquots were assayed by HPLC assay methods, respectively.
Structure (SMILES),Binding Constant- K [1],Binding Constant- K [2],Equilibrium binding constant with CAPTISOL [3],Photodecomposition in the presence of SBE7-β-CD [4],Ratio of budesonide epimer B to epimer A (R/S ratio) ([5]; Part A solution with 5% w/v CAPTISOL),"Budesonide concentration ([5]; Part A, CAPTISOL 5, 7.5 and 10% w/v, citrate buffer pH 4.5) [µg/mL]","Ratio of budesonide epimer B to epimer A (R/S ratio) ([5]; Part B, 5% w/v CAPTISOL, after olopatadine dissolved)","Budesonide concentration ([5]; Part B, all CAPTISOL concentrations, pH ~3.8) [µg/mL]","Ratio of budesonide epimer B to epimer A (R/S ratio) ([5]; Part C (pH 4.5), 5% w/v CAPTISOL, after olopatadine dissolved)","Budesonide concentration ([5]; Part C, pH adjusted to 4.5, CAPTISOL 5% w/v (precipitation)) [µg/mL]","Budesonide concentration ([5]; Part C, pH adjusted to 4.5, CAPTISOL 7.5 and 10% w/v) [µg/mL]"
C[C@H]1C[C@@H]2[C@H]([C@@H](O)C[C@@]3(C)[C@H]2CC[C@]3(O)C(=O)CO)[C@@]2(C)C=CC(=O)C=C12 [Methylprednisolone],486,950,–,–,–,–,–,–,–,–,–
"CC1(C)O[C@@H]2C[C@H]3[C@@H]4CCC5=CC(=O)C=C[C@]5(C)[C@@]4(F)[C@@H](O)C[C@]3(C)[C@]2(C(=O)CO)O1 [Triamcinolone acetonide, triamcinolone acetonide]",3591,10075,–,–,–,–,–,–,–,–,–
"CCCC1O[C@@H]2C[C@H]3[C@@H]4CCC5=CC(=O)C=C[C@]5(C)[C@H]4[C@@H](O)C[C@]3(C)[C@]2(C(=O)CO)O1 (stereo partly drawn) [Budesonide, (R,S)-11β, 16α, 17, 21-tetrahydroxypregna-1,4-diene-3, 20-dione cyclic 16, 17-acetal with butyraldehyde]",1002,1229,about 1000,significantly reduced,1.09,~340,1.07,> 320,0.6,210,> 320
